Data taken from PubChem BioAssay AID286 (DTP/NCI, 2004).
The list does not hold the whole screen: it covers a few groups of compounds. Other doses and runs of a compound may be missing. T/C is the treated group as % of the vehicle group. Where survival is the endpoint, the PubChem record calls one and a half times the control and up active, and a quarter to a half above the control has no call in these data; cut-offs in other NCI protocols can differ. Schedule codes are those of the source, taken here to give the interval after Q, in days (D) or hours (H), and the number of doses after X. Some entries show no survivor count and are marked so; the dose need not have been tolerated.

Tested on: BDF1 mice, M5076 sarcoma ip, median survival T/C
Test: NCI In Vivo Anticancer Drug Screen. Data for tumor model Sarcoma M5076 (intraperitoneal) in B6D2F1 (BDF1) mice
Settings: T/C endpoint: median survival time, schedule: Q04DX005 (ip), vehicle: saline + alcohol, higher T/C = longer survival
Method: The antitumor activity of compounds was measured in mice bearing transplantable tumors. Survival or tumor size were measured and the results are expressed as the measurement made in the treated group (T) divided by the measurement made in the vehicle treated control group (C). The tumor model used in this assay is Sarcoma M5076 (intraperitoneal) in B6D2F1 (BDF1) mice

SMILES: CC(=O)OCC12CCC(C)=CC1OC1C(O)C(OC(C)=O)C2(C)C12CO2 (stereo not drawn)
- T/C (dose: 1.5 mg/kg/injection, evaluated on day 90): 150 % of control [survivor count not shown]
- T/C (dose: 1.5 mg/kg/injection, evaluated on day 100): 189 % of control [survivor count not shown]
- T/C (dose: 3.0 mg/kg/injection, evaluated on day 90): 188 % of control [survivor count not shown]
- T/C (dose: 3.0 mg/kg/injection, evaluated on day 100): 216 % of control [survivor count not shown]
- T/C (dose: 6.0 mg/kg/injection, evaluated on day 90): 191 % of control [survivor count not shown]
- T/C (dose: 6.0 mg/kg/injection, evaluated on day 100): 200 % of control [survivor count not shown]
- T/C (dose: 12.0 mg/kg/injection, evaluated on day 90): 191 % of control [survivor count not shown]
- T/C (dose: 12.0 mg/kg/injection, evaluated on day 100): 269 % of control [survivor count not shown]
